According to publication PMC12509902, “PRMT1/PRMT5-Mediated Differential Arginine Methylation of CRIP1 Promotes the Recurrence of Small Cell Lung Cancer after Chemotherapy” (International Journal of Biological Sciences, 2025):
Where two headings read alike, the source gives them in different places. No constants are given. Whether binding was seen depends on the method and setting. For some of these results: In cells and extracts the contact can be indirect. Some binding calls cover weakened binding; strength is not graded here. For some of these results: Where a sequence is shown, tags or fusion partners need not be part of it.

Chains of the proteins cited; added tags and fusions are not shown. Lines headed by an entry give the natural chain unless they say otherwise; changes in a name come on top.
UniProt Q99873: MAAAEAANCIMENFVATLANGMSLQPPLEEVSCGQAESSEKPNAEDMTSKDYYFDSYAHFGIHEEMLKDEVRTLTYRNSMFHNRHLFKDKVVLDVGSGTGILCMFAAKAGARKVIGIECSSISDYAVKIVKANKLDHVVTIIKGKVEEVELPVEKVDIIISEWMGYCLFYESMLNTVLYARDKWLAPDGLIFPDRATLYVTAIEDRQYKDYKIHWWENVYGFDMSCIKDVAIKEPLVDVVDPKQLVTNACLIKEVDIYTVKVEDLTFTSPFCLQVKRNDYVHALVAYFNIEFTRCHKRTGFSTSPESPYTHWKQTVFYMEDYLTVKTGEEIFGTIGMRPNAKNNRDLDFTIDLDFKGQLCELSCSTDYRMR
UniProt P40337: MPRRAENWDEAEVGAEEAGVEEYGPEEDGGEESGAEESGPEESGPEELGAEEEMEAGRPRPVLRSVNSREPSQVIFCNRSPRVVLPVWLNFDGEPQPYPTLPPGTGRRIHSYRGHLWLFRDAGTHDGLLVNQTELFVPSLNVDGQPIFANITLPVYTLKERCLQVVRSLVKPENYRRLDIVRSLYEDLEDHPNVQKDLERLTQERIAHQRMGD
UniProt O14744: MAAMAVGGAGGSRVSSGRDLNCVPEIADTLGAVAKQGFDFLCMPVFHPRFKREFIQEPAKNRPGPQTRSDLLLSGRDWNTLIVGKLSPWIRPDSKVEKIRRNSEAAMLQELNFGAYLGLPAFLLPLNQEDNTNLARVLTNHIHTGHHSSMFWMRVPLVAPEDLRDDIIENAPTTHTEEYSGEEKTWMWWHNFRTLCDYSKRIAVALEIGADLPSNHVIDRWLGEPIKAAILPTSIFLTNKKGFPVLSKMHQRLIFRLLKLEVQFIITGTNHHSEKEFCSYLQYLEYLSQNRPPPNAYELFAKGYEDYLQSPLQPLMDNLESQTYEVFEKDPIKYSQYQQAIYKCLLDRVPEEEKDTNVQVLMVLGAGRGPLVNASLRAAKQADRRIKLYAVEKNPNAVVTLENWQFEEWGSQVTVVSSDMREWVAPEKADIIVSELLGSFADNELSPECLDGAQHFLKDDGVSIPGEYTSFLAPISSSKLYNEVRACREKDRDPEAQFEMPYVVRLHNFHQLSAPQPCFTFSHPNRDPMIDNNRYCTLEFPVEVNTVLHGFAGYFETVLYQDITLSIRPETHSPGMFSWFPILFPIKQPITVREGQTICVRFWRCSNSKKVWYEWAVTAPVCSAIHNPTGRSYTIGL

What was measured:
[1] = target: PRMT1 (endogenous, HEK-293T) (human (endogenous in HEK-293T)) (UniProt Q99873); test: co-IP; HEK-293T cells transfected with tagged plasmids; lysis in Buffer A (25 mM Tris-HCl pH 8.0, 10 mM NaCl, 1 mM EDTA, 0.5% NP-40); antibody overnight at 4 °C, Protein A/G magnetic beads, PBS washes, western blot; also after knock-down of PRMT1 or PRMT5
[2] = target: T1, GST-CRIP1, full-length (FL), wild type (UniProt P50238); test: pull-down; GST pull-down as described in ref. 23; GST-tagged protein expressed in BL21; Flag-tagged protein purified from HEK-293T by Flag affinity gel and 3× FLAG peptide elution; the paper calls the binding direct; both purified
T1 sequence: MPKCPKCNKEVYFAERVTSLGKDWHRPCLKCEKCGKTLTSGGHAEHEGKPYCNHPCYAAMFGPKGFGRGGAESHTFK

[3] = target: T2, 3×Flag-CRIP1 (cysteine-rich intestinal protein 1), wild type (UniProt P50238); test: co-IP; HEK-293T cells transfected with tagged plasmids; lysis in Buffer A (25 mM Tris-HCl pH 8.0, 10 mM NaCl, 1 mM EDTA, 0.5% NP-40); antibody overnight at 4 °C, Protein A/G magnetic beads, PBS washes, western blot; also after knock-down of PRMT1 or PRMT5
T2 sequence: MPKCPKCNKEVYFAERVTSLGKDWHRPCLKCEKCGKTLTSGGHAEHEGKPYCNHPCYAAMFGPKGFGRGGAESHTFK

[4] = target: T3, GST-CRIP1 (1-57aa) (UniProt P50238); test: pull-down; GST-CRIP1 and truncation mutants incubated with HEK-293T lysate or PRMT5-overexpressing HEK-293T lysate; only the target purified
T3 sequence: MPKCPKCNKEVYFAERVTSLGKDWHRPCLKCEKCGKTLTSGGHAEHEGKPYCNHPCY

[5] = target: PRMT1 (experiments of Fig. S6E and S6G-J) (UniProt Q99873); test: co-IP; co-immunoprecipitation and western blot; cells and constructs not shown (Fig. S5D, S6G-I)
[6] = target: PRMT1 (experiments of Fig. S6E and S6G-J) (UniProt Q99873); test: co-IP; co-immunoprecipitation of a pair in cells overexpressing a third protein (CRIP1 WT, R16F or R16K in Fig. S5E; PELI1 in Fig. S6J); cells and constructs not shown
[7] = target: T4, GST-CRIP1 (58-77aa) (UniProt P50238); test: pull-down; GST-CRIP1 and truncation mutants incubated with HEK-293T lysate or PRMT5-overexpressing HEK-293T lysate; only the target purified
T4 sequence: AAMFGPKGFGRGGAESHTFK

[8] = target: T5, CRIP1 WT (co-immunoprecipitations of Fig. S5D and S5E) (UniProt P50238); test: co-IP; co-immunoprecipitation and western blot; cells and constructs not shown (Fig. S5D, S6G-I)
T5 sequence: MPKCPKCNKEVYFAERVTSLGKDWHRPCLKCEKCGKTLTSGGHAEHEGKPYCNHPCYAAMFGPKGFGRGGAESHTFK

[9] = target: PRMT1 (endogenous, HEK-293T) (human (endogenous in HEK-293T)) (UniProt Q99873); test: co-IP; HEK-293T cells transfected with tagged plasmids; lysis in Buffer A (25 mM Tris-HCl pH 8.0, 10 mM NaCl, 1 mM EDTA, 0.5% NP-40); antibody overnight at 4 °C, Protein A/G magnetic beads, PBS washes, western blot; also after knock-down of PRMT1 or PRMT5; remark: listed apart in the source

3×Flag-VHL (from UniProt P40337 1-213)
binding [1]: binds

Flag-PRMT1 (from UniProt Q99873 1-371) (enzyme)
binding [2]: binds

HA-PRMT5 (from UniProt O14744 1-637) (enzyme)
binding [3]: binds

PRMT1 (endogenous, HEK-293T) (from UniProt Q99873 1-371) (enzyme)
binding [4]: binds
binding [3]: binds

PRMT5 (co-immunoprecipitations of Fig. S6G-J) (from UniProt O14744 1-637) (enzyme)
binding [5]: binds
binding [6]: binds

PRMT5 (endogenous, HEK-293T) (from UniProt O14744 1-637) (enzyme)
binding [3]: binds

PRMT5 overexpressed in HEK-293T (lysate for the GST pull-down with CRIP1 domains) (from UniProt O14744 1-637) (enzyme)
binding [4]: binds
binding [7]: binds

B1: MKK3 (enzyme, UniProt P46734 1-347)
chain: MESPASSQPASMPQSKGKSKRKKDLRISCMSKPPAPNPTPPRNLDSRTFITIGDRNFEVEADDLVTISELGRGAYGVVEKVRHAQSGTIMAVKRIRATVNSQEQKRLLMDLDINMRTVDCFYTVTFYGALFREGDVWICMELMDTSLDKFYRKVLDKNMTIPEDILGEIAVSIVRALEHLHSKLSVIHRDVKPSNVLINKEGHVKMCDFGISGYLVDSVAKTMDAGCKPYMAPERINPELNQKGYNVKSDVWSLGITMIEMAILRFPYESWGTPFQQLKQVVEEPSPQLPADRFSPEFVDFTAQCLRKNPAERMSYLELMEHPFFTLHKTKKTDIAAFVKEILGEDS
binding [8]: binds

B2: 3×Flag-PELI2 (enzyme, UniProt Q9HAT8 1-420)
chain: MFSPGQEEHCAPNKEPVKYGELVVLGYNGALPNGDRGRRKSRFALYKRPKANGVKPSTVHVISTPQASKAISCKGQHSISYTLSRNQTVVVEYTHDKDTDMFQVGRSTESPIDFVVTDTISGSQNTDEAQITQSTISRFACRIVCDRNEPYTARIFAAGFDSSKNIFLGEKAAKWKNPDGHMDGLTTNGVLVMHPRGGFTEESQPGVWREISVCGDVYTLRETRSAQQRGKLVESETNVLQDGSLIDLCGATLLWRTADGLFHTPTQKHIEALRQEINAARPQCPVGLNTLAFPSINRKEVVEEKQPWAYLSCGHVHGYHNWGHRSDTEANERECPMCRTVGPYVPLWLGCEAGFYVDAGPPTHAFTPCGHVCSEKSAKYWSQIPLPHGTHAFHAACPFCATQLVGEQNCIKLIFQGPID
binding [9]: binds

B3: 3×Flag-PELI3 (enzyme, UniProt Q8N2H9 1-469)
chain: MVLEGNPEVGSPRTSDLQHRGNKGSCVLSSPGEDAQPGEEPIKYGELIVLGCCEEGGEETEAQRGEVTGPRAHSCYNGCLASGDKGRRRSRLALSRRSHANGVKPDVMHHISTPLVSKALSNRGQHSISYTLSRSHSVIVEYTHDSDTDMFQIGRSTENMIDFVVTDTSPGGGAAEGPSAQSTISRYACRILCDRRPPYTARIYAAGFDASSNIFLGERAAKWRTPDGLMDGLTTNGVLVMHPAGGFSEDSAPGVWREISVCGNVYTLRDSRSAQQRGKLVENESNVLQDGSLIDLCGATLLWRTPAGLLRAPTLKQLEAQRQEANAARPQCPVGLSTLAFPSPARGRTAPDKQQPWVYVRCGHVHGYHGWGCRRERGPQERECPLCRLVGPYVPLWLGQEAGLCLDPGPPSHAFAPCGHVCSEKTARYWAQTPLPHGTHAFHAACPFCGAWLTGEHGCVRLIFQGPLD
binding [9]: binds
